# In all, about 340,000 compounds went through this assay and about 6,200 (1.8%) were called active. Inconclusive means that the source gave no clear call. Such entries were picked first, then a sample of the others. The call rests on the fitted dose curve; in most records, active means well fitted activation curve with a large enough effect; inconclusive means small, poorly fitted or top-dose-only effect; inactive means no such curve, though single readings can be large or run the other way. Potencies of inconclusive entries are doubtful fits and often do not repeat.
# Experiment: A quantitative high throughput screen for small molecules that induce DNA re-replication in SW480 colon adenocarcinoma cells. Further: nearly all actives have a fitted effect of over 55% in size. On re-replication activation: % of control where 0% means no effect.
# Conditions: Hoechst DNA content imaging, 48 h; re-replication activation: at 46.1 µM (top of the series) unless noted
# In short: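 250 cells/well; 23 nL cpd via pin tool; 48 hr, 37 C, 5% CO2; Hoechst 40 min; imager read of total nuclear intensity, ex 405/em 500-530 nm.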
# Potency means the concentration at half of the fitted maximal effect.
Compound,Potency,re-replication activation
CC(C)NC(=O)/C(C#N)=C/c1cccc(NC(=O)c2ccccc2Cl)c1,"inconclusive: 20.6 µM [activator, single point]",
CCOC(=O)C(=CNc1nc2ccc(C(=O)OCC)cc2s1)C(=O)OCC,"inconclusive: 0.206 µM [activator, full curve, poor fit]",
COCCCNC(=O)Cn1nc(-c2cccc(OC)c2)ccc1=O,"inconclusive: 14.6 µM [activator, partial curve, poor fit]",
Cc1ccc2nc(-c3ccc(NC(=O)CN4CCN(c5ccccn5)CC4)cc3)sc2c1,"inconclusive: 4.11 µM [activator, full curve, poor fit]",
Cc1ccc(NC(=O)CCN2C(=O)NC(C)(C)C2=O)cc1F,"inconclusive: 29.1 µM [activator, partial curve, poor fit]",
Oc1c(C=Nc2ccccc2)sc(=S)n1Cc1ccccc1,"inconclusive: 20.6 µM [activator, single point]",
CCNc1cc2oc(=O)c(CN3CCOCC3)c(C)c2cc1C,"inconclusive: 2.06 µM [activator, partial curve]",
O=C(Nc1cc(Cl)ccc1N1CCOCC1)c1ccc(N2CCCC2=O)cc1,"inconclusive: 29.1 µM [activator, single point]",
COc1ccc(CCN(C)C2CCCN(S(=O)(=O)c3ccccc3)C2)cc1OC (stereo not drawn),"inconclusive: 11.6 µM [activator, single point]",
CC(C)[C@H](NC(=O)c1ccccc1)C(=O)NC1=NCCS1,,inactive: -2.55%
C[C@H](NC(=O)c1nc[nH]c1C(=O)N[C@@H](CCCCN)C(=O)OC(C)(C)C)C(=O)OCc1ccccc1,,inactive: -17.5%
CCOC(=O)c1ccc(N2C(=O)c3n[nH]c(-c4ccco4)c3C2c2ccc([N+](=O)[O-])cc2)cc1 (stereo not drawn),"inconclusive: 31.6 µM [activator, single point]",
Cc1ccccc1OCC(=O)Nc1cc(S(=O)(=O)N2CCCCC2)ccc1N1CCN(C)CC1,"inconclusive: 32.6 µM [activator, single point]",
CCOc1ncccc1C(=O)Nc1ccc2nc(C)sc2c1,"inconclusive: 23.1 µM [activator, single point]",
Cc1ccnc(NS(=O)(=O)c2ccc(NC(=O)c3cc(-c4ccc(Br)cc4)nc4ccccc34)cc2)n1,"inconclusive: 13 µM [activator, partial curve, poor fit]",
Cc1ccc(-c2nc3ccccc3[nH]c2=O)cc1,"inconclusive: 20.6 µM [activator, single point]",
Cc1ccc(NC(=O)OC(C)N2CCCCC2)cc1NC(=O)OC(C)N1CCCCC1 (stereo not drawn),,inactive: 16.6%
Cc1sc(NC(=O)c2ccccc2F)c(CN2CCCCC2C)c1C (stereo not drawn),,inactive: 1.24%
Cc1cccc(N=CC=C2OC(C)(C)C(C)(C)O2)c1,active: 20.6 µM,
CCc1ccc(C2=NNC(=Nc3cccc(S(=O)(=O)N(C)C)c3)SC2)cc1,active: 20.6 µM,
CN(CCO)C1=NS(=O)(=O)c2cc([N+](=O)[O-])ccc21,"inconclusive: 29.1 µM [activator, single point]",
Cc1cc(C)c2oc(C(=O)Nc3ccc(S(=O)(=O)N4CCC(C)CC4)cc3)cc(=O)c2c1,,inactive: -2.59%
Cc1cc(NC(=O)/C=C/c2ccco2)ccc1NC(=O)c1ccccc1,,inactive: 11.4%

Compound,Potency,re-replication activation
CC(NC(=O)C(NC(=O)C1CCCN1C(=O)OC(C)(C)C)C(C)C)C(N)=O (stereo not drawn),"inconclusive: 2.06 µM [activator, partial curve, poor fit]",
CCN1C(=O)[C@H]2[C@@H](c3ccc(C)cc3)N3C(=O)N(c4cccc(Br)c4)C(=O)[C@@]3(CC(C)C)[C@H]2C1=O,,inactive: 11.7%
COc1ccc(-c2cc(C(=O)OCC(=O)N3CCCC3)c3ccccc3n2)cc1,,inactive: -0.104%
CC(C)(C)c1ccc(-n2nc(C(N)=O)c(O)cc2=O)cc1,"inconclusive: 29.1 µM [activator, partial curve, poor fit]",
N#CCC(=O)N/N=C/c1ccc(Cl)cc1,"inconclusive: 1.46 µM [activator, full curve, poor fit]",
O=C(O)CSc1nc2ccccc2n1Cc1ccccc1,"inconclusive: 4.11 µM [activator, partial curve, poor fit]",
CCOc1ccccc1NC(=S)Nc1ncccc1C,"inconclusive: 29.1 µM [activator, single point]",
Cc1cccc(C)c1OCc1cc(C(=O)N(Cc2nccn2C)C(C)C)no1,"inconclusive: 16.4 µM [activator, partial curve, poor fit]",
O=C(Nc1nc2ccccc2[nH]1)c1ccc([N+](=O)[O-])cc1,,inactive: 5.77%
O=C(COC(=O)C1CC1)Nc1ccc([N+](=O)[O-])cc1C(F)(F)F,,inactive: -26%
O=C(CSc1nnc(CCc2ccccc2)n1-c1ccc(Cl)cc1)NCc1ccccc1,,inactive: 3.58%
COc1cc2c(cc1OC)C(C)N(C(=O)Nc1ccccc1)CC2 (stereo not drawn),active: 5.17 µM,
COc1ccc(NC(=S)N(CCCN2CCCCCC2)Cc2cccs2)cc1,,inactive: -13.4%
CCOC(=O)c1c(C)[nH]c(C)c1S(=O)(=O)NCc1cc(C)ccc1C,,inactive: -10.1%
Cc1ccccc1CN1CCN(c2ccc(S(=O)(=O)N3CCCC3)cn2)CC1,,inactive: 4.9%
N=c1c(S(=O)(=O)c2ccc(Br)cc2)cc2c(=O)n3ccccc3nc2n1CCN1CCOCC1,"inconclusive: 23.1 µM [activator, single point]",
O=C(O)C1CC=CCC1C(=O)NCc1ccc(Cl)c(Cl)c1 (stereo not drawn),"inconclusive: 29.1 µM [activator, partial curve, poor fit]",
O=C(CCN1C(=O)c2ccccc2S1(=O)=O)N1CCN(c2cccc(Cl)c2)CC1,,inactive: -353%
O=[N+]([O-])c1ccc(NN=Cc2ccco2)nc1,,inactive: 5.05%
C[C@@H]1NS(=O)(=O)[C@H]2C[C@@H]3C=C[C@]2(O3)[C@H]1OC(=O)c1ccc(C(C)(C)C)cc1,"inconclusive: 0.461 µM [activator, full curve, poor fit]",
Cc1cccc(N2CCN(Cc3ccc([N+](=O)[O-])o3)CC2)c1C,"inconclusive: 29.1 µM [activator, single point]",
O=C(NCCCN=C1NS(=O)(=O)c2ccccc21)c1ccc(S(=O)(=O)N2CCCCC2)cc1,"inconclusive: 18.4 µM [activator, single point]",
Cc1ccc(C)c(NC(=O)CSc2nnc(CCNC(=O)OC(C)(C)C)o2)c1,"inconclusive: 16.4 µM [activator, partial curve, poor fit]",

# Quoted from the listing.
# `Cc1ccccc1OCC(=O)Nc1cc(S(=O)(=O)N2CCCCC2)ccc1N1CCN(C)CC1` | Potency: inconclusive: 32.6 µM [activator, single point]
# `Cc1ccc(NC(=O)CCN2C(=O)NC(C)(C)C2=O)cc1F` | Potency: inconclusive: 29.1 µM [activator, partial curve, poor fit]

# (listing goes on)

Compound,Potency,re-replication activation
c1ccc(Nc2nc(NCCN3CCOCC3)nc(Nc3ccccc3)n2)cc1,"inconclusive: 29.1 µM [activator, single point]",
COc1cc(C(=O)NCCOc2cc(C)cc(C)c2)c(Br)c(OC)c1OC,"inconclusive: 29.1 µM [activator, single point]",
Cc1ccc(C(=O)N2CCCCCC2)cc1S(=O)(=O)N1CCOCC1,,inactive: -0.922%
CCOC(=O)N1CCN(Cc2nc(N)nc(Nc3ccc(C)cc3C)n2)CC1,,inconclusive: 59% [activator]
C/C=C/c1ccc(OCCOCCNCc2ccccc2)c(OC)c1,"inconclusive: 29.1 µM [activator, single point]",
CCCc1nc(SCC(=O)NCC2CCCO2)c2c(=O)n(C)c(=O)n(C)c2n1 (stereo not drawn),,inactive: 3.21%
CCN(CC)c1nc(C(N)=O)cc(-c2ccccc2)n1,"inconclusive: 35.5 µM [activator, single point]",
COc1cc(Cl)c(C)cc1NC(=O)[C@@H]1CCCN1C(=O)c1cccs1,"inconclusive: 6.51 µM [activator, single point]",
COc1ccccc1N1CCN(C(=O)c2ccc(C(C)(C)C)cc2)CC1,"inconclusive: 29.1 µM [activator, single point]",
Cc1ccc(C(=O)Cn2cc([N+](=O)[O-])nc2C)cc1,"inconclusive: 23.1 µM [activator, single point]",
COCCC(=O)Nc1ccc2c(c1)CN(C(=O)CCOC)CC2,"inconclusive: 6.51 µM [activator, partial curve, poor fit]",
O=C(CN1C(=O)c2cccc3cccc1c23)N1CCc2ccccc2C1,,inactive: -1.36%
COc1ccc(-c2cnn3c4c(c(C)nc23)CCN4C(C)C)cc1OC,"inconclusive: 20.6 µM [activator, single point]",
O=C(c1cccc(N2CCCC2=O)c1)N1CCN(c2cccc(Cl)c2)CC1,,inactive: -4.75%
COc1ccc(/C=N/NC(=O)c2cccc([N+](=O)[O-])c2)cc1O,"inconclusive: 25.9 µM [activator, partial curve, poor fit]",
COc1ccc(/C=N/NC(=O)c2ccc(N)cc2)cc1Cn1cc([N+](=O)[O-])cn1,"inconclusive: 29.1 µM [activator, single point]",
CCOc1ccc(C(C)=O)cc1COC(=O)c1cnc(Cl)c(Cl)c1,"inconclusive: 29.1 µM [activator, single point]",
COc1ccc(CCNC(=O)C2CCCN(S(=O)(=O)c3ccc(F)cc3)C2)cc1OC (stereo not drawn),"inconclusive: 29.1 µM [activator, single point]",
COc1ccccc1CNC(=O)COC(=O)c1ccc(Cl)c(N)c1,"inconclusive: 32.6 µM [activator, partial curve, poor fit]",
CC(=O)N1N=C(c2ccc3nccnc3c2)CC1c1ccccc1 (stereo not drawn),,inactive: -1.07%
CCOc1ccc(N(C)c2ccc(/C=C3/SC(=S)NC3=O)cc2)cc1,"inconclusive: 0.0046 µM [activator, partial curve, poor fit]",
OCC1(Cc2ccccc2)CCCN(Cc2cnn(-c3ccccc3)c2)C1 (stereo not drawn),"inconclusive: 29.1 µM [activator, single point]",

# From PubChem BioAssay AID624297 (National Center for Advancing Translational Sciences (NCATS), 2012)
